Article PMC6530869
Numbering of substitutions follows the chain as printed. Numbers in names are those of the source. Results are given in words; binding and its absence hold for the method and conditions named. Binding can be weak; no strength is given. Tags and fused reporters may be left off the sequences shown. For some assays here: In cells and extracts the contact can be indirect.

B1: LovK(H180A) (fusion to a split adenylate cyclase fragment) (protein, UniProt Q9ABE3 1-368)
chain: MEDYSESRRAGERLAAGHGVDDPFAAAISATRMAMIVADATQPDIPIIFANDAFLRLTGYARDEVIGRNCRFLQGPDTDPKAIQAVRDALAAGEDVAVDLLNYRKDGSPFWNALNMSPVRNDAGQLVYFFGSQVDVTDKKVVELRARDHSDGLQQMVEERTRELTEALKQKTALLHEVDARVKNNLQLISSLLLLQNRRVPDPAVKASLRGMLGRVNAIATVHRRLFQSEDVERFDVSAFIRDMVADLMGSAMRDDIRVELDLERVEIPAAKAAPLALVVNELLTNALRHGFPEGRGGRIFVGLSRLNGDFRIEITDDGVGQDRETRASGFGLTIVQLLCQQLKAKWETTDAEPGTRVVVLLPINGTQ
B2: LovK (fusion to the T25 or T18c fragment of adenylate cyclase) (protein, UniProt Q9ABE3 1-368)
chain: B1 chain with A180H
B3: HA-LovK (protein, UniProt Q9ABE3 1-368)
chain: B1 chain with A180H

Legend:
[1] = target: SkaH(H285A) (fusion to a split adenylate cyclase fragment) (Caulobacter crescentus); experiment: two-hybrid; bacterial two-hybrid in E. coli BTH101; kinases fused to the C-terminus of the T25 and T18c fragments of adenylate cyclase; colour of spots on LB agar with X-gal and 0.5 mM IPTG after 36 hours at 30°C
[2] = target: SkaH(D550A) (fusion to a split adenylate cyclase fragment) (Caulobacter crescentus); experiment: as above
[3] = target: MBP-SkaH (Caulobacter crescentus); experiment: pull-down; fusions co-expressed in C. crescentus; cleared lysate loaded on amylose resin (MBP held), washed with 30-50 ml of 25 mM Tris pH 7.6, 125 mM NaCl, eluted with 40 mM maltose; co-purifying kinases detected by Western blot against HA or FLAG

Binder | binding [1] | binding [2] | binding [3]
B1 | binds | binds | 
B2 | binds | binds | 
B3 |  |  | binds
